Assay [1] addresses T1, HA-tagged iR2-1-374, nuclear N-terminal fragment of mouse iRhom2 (tetracycline inducible) (mouse) (UniProt Q80WQ6).
T1 sequence: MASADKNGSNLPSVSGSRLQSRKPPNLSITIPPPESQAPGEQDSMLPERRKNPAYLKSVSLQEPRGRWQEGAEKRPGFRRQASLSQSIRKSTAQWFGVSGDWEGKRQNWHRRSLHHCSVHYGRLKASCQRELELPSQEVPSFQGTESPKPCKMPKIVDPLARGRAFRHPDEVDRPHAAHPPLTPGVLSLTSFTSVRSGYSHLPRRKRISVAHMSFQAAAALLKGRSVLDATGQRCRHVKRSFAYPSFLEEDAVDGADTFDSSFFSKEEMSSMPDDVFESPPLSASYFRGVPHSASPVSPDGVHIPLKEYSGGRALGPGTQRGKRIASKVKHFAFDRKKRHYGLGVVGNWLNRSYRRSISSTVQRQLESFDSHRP
Description: co-IP; HEK293T stably expressing tetracycline-inducible HA-tagged iR2-1-374; IP: HA; immunoblot for endogenous nuclear proteins.

Assay [2] addresses mouse iRhom2 lacking the luminal iRhom homology domain, C-terminal HA tag (iR2_ΔIRHD) (mouse) (UniProt Q80WQ6). Description: co-IP; HEK293T transfected with HA-tagged iRhom2 constructs and SEC11A, 36-48 h; Triton X-100 lysate; IP: HA with anti-HA magnetic beads, 4°C overnight; washes with 500 mM NaCl; immunoblot. (In western blotting, separated proteins are transferred to a membrane and probed.)

The target in assay [3] is mouse iRhom2 uncleavable LVLF mutant with C-terminal HA tag (mouse) (UniProt Q80WQ6). The description is as above.

No constants are given. Whether binding was seen depends on the method and setting. In cells and extracts the contact can be indirect. A result given as binding can be weak or reduced; the word gives no strength. Sequences can lack the tags named with a protein.

Consider “transcription factor IID (TFIID) (human (endogenous in HEK293T))”, for which, in assay [1], the binding entry is on record as “binds”.

B1: SEC11A, catalytic subunit of the signal peptidase complex (SEC11A-Myc-FLAG) (enzyme, UniProt P67812 1-179)
chain: MLSLDFLDDVRRMNKRQLYYQVLNFGMIVSSALMIWKGLMVITGSESPIVVVLSGSMEPAFHRGDLLFLTNRVEDPIRVGEIVVFRIEGREIPIVHRVLKIHEKQNGHIKFLTKGDNNAVDDRGLYKQGQHWLEKKDVVGRARGFVPYIGIVTILMNDYPKFKYAVLFLLGLFVLVHRE
Consider B1, for which the binding result in assay [2] and in assay [3] was “binds” throughout.

For the origin of these results see article PMC7618786.
